Assay results taken from publication PMC7352202.
These are yes or no findings as the source states them, for the method shown. For part of these data: Binding seen in cells or lysates may run through a third protein. Some entries that bind do so weakly or less than the wild type. Values belong to the substance of their own block, whether it stands above or below them.

Amino acid sequences for entries named in this document (tags omitted).
UniProt Q05086: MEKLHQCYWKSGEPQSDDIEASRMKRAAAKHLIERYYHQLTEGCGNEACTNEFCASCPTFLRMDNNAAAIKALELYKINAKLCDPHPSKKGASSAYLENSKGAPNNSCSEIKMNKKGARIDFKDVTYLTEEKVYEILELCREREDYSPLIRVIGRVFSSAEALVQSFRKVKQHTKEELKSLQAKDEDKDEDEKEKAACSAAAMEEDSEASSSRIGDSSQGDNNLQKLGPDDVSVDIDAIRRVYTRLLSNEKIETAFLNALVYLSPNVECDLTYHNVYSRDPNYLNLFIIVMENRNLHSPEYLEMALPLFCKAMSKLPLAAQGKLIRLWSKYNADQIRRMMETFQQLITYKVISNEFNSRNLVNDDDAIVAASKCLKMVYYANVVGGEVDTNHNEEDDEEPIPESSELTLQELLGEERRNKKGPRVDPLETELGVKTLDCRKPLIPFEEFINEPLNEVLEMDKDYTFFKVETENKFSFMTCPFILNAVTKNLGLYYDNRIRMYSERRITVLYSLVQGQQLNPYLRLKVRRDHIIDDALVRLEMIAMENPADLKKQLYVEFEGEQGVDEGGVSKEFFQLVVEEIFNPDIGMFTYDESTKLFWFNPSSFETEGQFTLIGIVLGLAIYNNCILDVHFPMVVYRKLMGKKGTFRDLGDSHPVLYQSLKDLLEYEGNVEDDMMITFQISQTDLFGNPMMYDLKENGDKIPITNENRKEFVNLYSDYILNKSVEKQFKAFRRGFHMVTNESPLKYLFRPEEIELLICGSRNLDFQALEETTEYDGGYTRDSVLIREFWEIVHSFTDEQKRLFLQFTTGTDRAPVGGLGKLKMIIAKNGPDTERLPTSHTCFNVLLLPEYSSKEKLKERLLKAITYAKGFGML
UniProt O94874: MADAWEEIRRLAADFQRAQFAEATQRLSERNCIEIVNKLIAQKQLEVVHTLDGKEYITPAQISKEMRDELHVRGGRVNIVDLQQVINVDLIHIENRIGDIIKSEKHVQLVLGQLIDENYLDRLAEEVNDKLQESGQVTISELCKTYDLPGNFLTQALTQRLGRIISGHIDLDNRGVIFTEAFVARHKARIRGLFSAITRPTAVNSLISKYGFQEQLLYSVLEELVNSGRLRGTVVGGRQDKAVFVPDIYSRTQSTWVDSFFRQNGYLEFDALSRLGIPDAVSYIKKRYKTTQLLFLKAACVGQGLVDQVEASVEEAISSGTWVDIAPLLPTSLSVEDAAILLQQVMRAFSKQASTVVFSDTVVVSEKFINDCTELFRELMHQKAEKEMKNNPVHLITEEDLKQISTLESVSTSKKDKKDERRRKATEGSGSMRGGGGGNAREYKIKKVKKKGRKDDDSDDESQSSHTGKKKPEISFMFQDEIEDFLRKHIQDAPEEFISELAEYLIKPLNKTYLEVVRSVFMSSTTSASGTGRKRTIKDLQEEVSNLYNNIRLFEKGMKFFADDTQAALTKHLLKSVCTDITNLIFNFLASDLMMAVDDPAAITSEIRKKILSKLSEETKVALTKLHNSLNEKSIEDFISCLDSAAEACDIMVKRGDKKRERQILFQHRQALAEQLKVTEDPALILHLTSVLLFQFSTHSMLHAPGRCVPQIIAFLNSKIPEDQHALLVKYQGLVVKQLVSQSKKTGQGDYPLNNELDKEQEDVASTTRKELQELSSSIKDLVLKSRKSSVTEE
UniProt P05120: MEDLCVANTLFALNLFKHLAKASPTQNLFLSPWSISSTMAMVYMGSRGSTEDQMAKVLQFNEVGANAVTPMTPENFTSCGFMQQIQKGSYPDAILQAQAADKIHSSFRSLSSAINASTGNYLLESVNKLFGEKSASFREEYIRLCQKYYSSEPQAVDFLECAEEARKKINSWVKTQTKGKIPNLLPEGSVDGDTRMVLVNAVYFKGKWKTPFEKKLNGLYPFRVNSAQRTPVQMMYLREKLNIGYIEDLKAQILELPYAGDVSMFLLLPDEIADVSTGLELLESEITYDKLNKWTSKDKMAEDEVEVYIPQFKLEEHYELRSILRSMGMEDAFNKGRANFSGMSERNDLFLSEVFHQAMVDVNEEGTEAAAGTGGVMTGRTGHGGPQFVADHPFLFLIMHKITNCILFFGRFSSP
UniProt Q8N339: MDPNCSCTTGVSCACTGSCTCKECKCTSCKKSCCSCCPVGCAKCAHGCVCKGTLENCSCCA

Key:
[1] = target: UBE3A (yeast two-hybrid bait, pDEST32-UBE3A) (human) (UniProt Q05086); test: two-hybrid; library screen in yeast strain Mav203; E3 ligase bait in pDEST32, prey library of over 20,000 human ORFs in pDEST22; positive colonies survived on SD-4 (deficient in Ura, His, Leu and Trp) plates and were blue with X-Gal; hits identified by sequencing
[2] = target: UBE3A (in HEK293T cells, co-immunoprecipitation) (human) (UniProt Q05086); test: co-IP; HEK293T cell lysate in Co-IP buffer (50 mM Tris-Cl pH 7.5, 150 mM NaCl, 5.0 mM EDTA, 1.0% NP-40); specific antibodies with protein G agarose beads or anti-Flag affinity gels; immunoblot
[3] = target: UFL1 (yeast two-hybrid bait, pDEST32-UFL1) (human) (UniProt O94874); test: two-hybrid; library screen in yeast strain Mav203; E3 ligase bait in pDEST32, prey library of over 20,000 human ORFs in pDEST22; positive colonies survived on SD-4 (deficient in Ura, His, Leu and Trp) plates and were blue with X-Gal; hits identified by sequencing

Substance: SERPINB2 (yeast two-hybrid prey, pDEST22) (from UniProt P05120 1-415)
binding [1]: binds

binding [2]: binds
Substance: SERPINB2 (in HEK293T cells, co-immunoprecipitation) (from UniProt P05120 1-415)

Substance: MT1M (yeast two-hybrid prey, pDEST22) (from UniProt Q8N339 1-61)
binding [3]: binds
